Laboratory results reported in publication PMC10711553.
The exact form of at least one protein or probe is not confirmed. Weaker means in comparison with the reference protein, sequence or condition of that experiment.

Sequences of proteins named here, by UniProt entry; tags and fusion partners are left off. Residues count along the entry.
UniProt Q9UKK3, 1-573: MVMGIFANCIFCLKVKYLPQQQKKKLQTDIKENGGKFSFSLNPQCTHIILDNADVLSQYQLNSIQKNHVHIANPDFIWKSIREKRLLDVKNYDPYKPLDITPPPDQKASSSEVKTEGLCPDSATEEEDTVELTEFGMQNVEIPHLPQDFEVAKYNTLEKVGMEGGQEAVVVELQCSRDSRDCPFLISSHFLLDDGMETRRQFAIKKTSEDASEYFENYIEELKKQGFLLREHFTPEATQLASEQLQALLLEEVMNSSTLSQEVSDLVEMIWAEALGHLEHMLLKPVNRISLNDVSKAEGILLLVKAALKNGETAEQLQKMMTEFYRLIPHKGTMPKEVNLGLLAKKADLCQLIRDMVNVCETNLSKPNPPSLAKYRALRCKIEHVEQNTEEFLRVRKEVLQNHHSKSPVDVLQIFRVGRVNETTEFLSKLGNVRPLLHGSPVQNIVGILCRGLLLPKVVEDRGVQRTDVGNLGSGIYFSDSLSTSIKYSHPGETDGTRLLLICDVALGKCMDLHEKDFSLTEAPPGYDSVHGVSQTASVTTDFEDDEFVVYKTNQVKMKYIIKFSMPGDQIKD

Target: PARP4 BRCT-WGR-CAT (Homo sapiens) (UniProt Q9UKK3)
Assay: EMSA
Conditions: very weak, at highest concentration tested; EMSA: same but 20% glycerol, 100 nM nucleic acid, room temperature 30 min, gel at 4 C in Tris-glycine; recombinant protein; protein details: N-terminal His-SUMO tag, cleaved with TEV; label: 5'-Cy3; single-stranded DNA

Sequence: CAGATCTACCGAATCAGTCCGACGACGCATCTGCACTACGAGGATAC [47-nt ssDNA, Cy3]
- binding result: binds more weakly
